Some of these results come from one statement about several compounds together.
test system: 5-2 Luc cells, 9-13 cells or Huh-7 cells; assay: Cytotoxicity assay (Cell Titer Glo); settings: read-out: IC50 cytotoxicity (number of viable cells), liver cells including an HCV replicon, 24 hr

Compound	IC50 [µM]
O=C(Nc1cccc(-c2cc(-c3cccc(Cl)c3Cl)no2)c1)C(Cl)Cl [Compound 3, 2,2-Dichloro-N-[3-[3-(2,3-dichlorophenyl)-5-isoxazolyl]phenyl] Acetamide]	> 10
O=C(Nc1cccc(-c2cc(-c3c(Cl)cccc3OCCN3CCOCC3)no2)c1)C(Cl)Cl [Compound 95, 2,2-Dichloro-N-[3-[3-[2-chloro-6-(N-morpholino-2-ethyleneoxy)phenyl]-5-isoxazolyl]-phenyl] Acetamide]	> 10
Cc1ccc(-c2cc(-c3c(Cl)cccc3Cl)no2)cc1NC(=O)C(Cl)Cl [Compound 165, 2,2-Dichloro-N-[3-[3-(2,6-dichlorophenyl)-5-isoxazolyl]-6-methylphenyl] Acetamide]	> 10
O=C(Nc1cccc(-c2cc(-c3c(O)cccc3C(F)(F)F)no2)c1)C(Cl)Cl [Compound 35, 2,2-Dichloro-N-[3-[3-(2-hydroxy-6-trifluoromethylphenyl)-5-isoxazolyl]phenyl] Acetamide]	> 10
COc1ccc(NC(=O)C(Cl)Cl)cc1-c1cc(-c2c(Cl)cccc2Cl)no1 [Compound 127, 2,2-Dichloro-N-[3-[3-(2,6-dichlorophenyl)-5-isoxazolyl]-4-methoxyphenyl] Acetamide]	> 10
CN1CCN(c2cccc(C(F)(F)F)c2-c2cc(-c3cccc(NC(=O)C(Cl)Cl)c3)on2)CC1 [Compound 109, 2,2-Dichloro-N-[3-[3-[2-trifluoromethyl-6-(4-methylpiperazino)phenyl]-5-isoxazolyl]-phenyl] Acetamide]	> 10
O=C(Nc1cccc(-c2cc(-c3ccccc3C3CCCC3)no2)c1)C(Cl)Cl [Compound 129, 2,2-Dichloro-N-[3-[3-(2-cyclopentylphenyl)-5-isoxazolyl]phenyl] Acetamide]	> 10
Cc1c(NC(=O)C(Cl)Cl)cccc1-c1cc(-c2c(Cl)cccc2Cl)no1 [Compound 167, 2,2-Dichloro-N-[3-[3-(2,6-dichlorophenyl)-5-isoxazolyl]-2-methylphenyl] Acetamide]	> 10
O=C(Nc1cc(-c2cc(-c3c(Cl)cccc3Cl)no2)ccc1F)C(Cl)Cl [Compound 1, 2,2-Dichloro-N-[3-[3-(2,6-dichlorophenyl)-5-isoxazolyl]-6-fluorophenyl] Acetamide]	> 10
CC(C)c1ccccc1-c1cc(-c2cccc(NC(=O)C(Cl)Cl)c2)on1 [Compound 63, 2,2-Dichloro-N-[3-[3-(2-isopropylphenyl)-5-isoxazolyl]phenyl] Acetamide]	> 10
O=C(Nc1cccc(-c2cc(-c3c(F)cccc3I)no2)c1)C(Cl)Cl [Compound 49, 2,2-Dichloro-N-[3-[3-(2-fluoro-6-iodophenyl)-5-isoxazolyl]phenyl] Acetamide]	> 10
Cc1cccc(Cl)c1-c1cc(-c2cccc(NC(=O)C(Cl)Cl)c2)on1 [Compound 31, 2,2-Dichloro-N-[3-[3-(2-chloro-6-methylphenyl)-5-isoxazolyl]phenyl] Acetamide]	> 10
O=C(CI)Nc1cccc(-c2cc(-c3c(Cl)cccc3Cl)no2)c1 [Compound 101, 2-Iodo-N-[3-[3-(2,6-dichlorophenyl)-5-isoxazolyl]phenyl] Acetamide]	> 10
O=C(Nc1cccc(-c2cc(-c3ccccc3OC(F)(F)F)no2)c1)C(Cl)Cl [Compound 113, 2,2-Dichloro-N-[3-[3-(2-trifluoromethoxyphenyl)-5-isoxazolyl]phenyl] Acetamide]	> 10
CC(C)Oc1ccccc1-c1cc(-c2cccc(NC(=O)C(Cl)Cl)c2)on1 [Compound 119, 2,2-Dichloro-N-[3-[3-(2-isopropyloxyphenyl)-5-isoxazolyl]phenyl] Acetamide]	> 10
Cc1cccc(-c2cc(-c3cccc(NC(=O)C(Cl)Cl)c3)on2)c1C [Compound 163, 2,2-Dichloro-N-[3-[3-(2,3-dimethylphenyl)-5-isoxazolyl]phenyl] Acetamide]	> 10
O=C(Nc1cccc(-c2cc(-c3c(Cl)cc(Cl)cc3OCCN3CCOCC3)no2)c1)C(Cl)Cl [Compound 143, 2,2-Dichloro-N-[3-[3-[2,4-dichloro-6-(N-morpholino-2-ethyleneoxy)phenyl]-5-isoxazolyl]-phenyl] Acetamide]	> 10
O=C(Nc1cccc(-c2cc(-c3c(C4CC4)cccc3C(F)(F)F)no2)c1)C(Cl)Cl [Compound 89, 2,2-Dichloro-N-[3-[3-(2-cyclopropyl-6-trifluoromethylphenyl)-5-isoxazolyl]phenyl] Acetamide]	> 10
CN(C)CCN(C)c1cccc(Cl)c1-c1cc(-c2cccc(NC(=O)C(Cl)Cl)c2)on1 [Compound 131, 2-Dichloro-N-[3-[3-[2-chloro-6-(N,N-dimethylethylene-N′-methylamino)phenyl]-5-isoxazolyl]-phenyl] Acetamide]	> 10
CSc1cccc(F)c1-c1cc(-c2cccc(NC(=O)C(Cl)Cl)c2)on1 [Compound 11, 2,2-Dichloro-N-[3-[3-(2-fluoro-6-thiomethylphenyl)-5-isoxazolyl]phenyl] Acetamide]	> 10
O=C(Nc1cccc(-c2cc(-c3c(Cl)cccc3C3CCCCC3)no2)c1)C(Cl)Cl [Compound 111, 2,2-Dichloro-N-[3-[3-(2-chloro-6-cyclohexylphenyl)-5-isoxazolyl]phenyl] Acetamide]	> 10

From patent publication US6759538B2, “Substituted diphenyl heterocycles useful for treating HCV infection” (priority 2001, dated 2004)
